The target of the assay is Ubiquitin-specific protease 7 (human (endogenous in U2OS)) (UniProt Q93009). Briefly: affinity purification with mass spectrometry; U2OS lysate (50 mM Tris-HCl pH 7.5, 150 mM NaCl, 5 mM EDTA) precipitated with anti-USP7 and protein A/G agarose, 4 °C; IgG as control; distinct SDS-PAGE band excised, in-gel tryptic digestion, QTOF MS.

Protein sequences, listed by entry. Tags and fused reporters are not part of them.
UniProt Q93009: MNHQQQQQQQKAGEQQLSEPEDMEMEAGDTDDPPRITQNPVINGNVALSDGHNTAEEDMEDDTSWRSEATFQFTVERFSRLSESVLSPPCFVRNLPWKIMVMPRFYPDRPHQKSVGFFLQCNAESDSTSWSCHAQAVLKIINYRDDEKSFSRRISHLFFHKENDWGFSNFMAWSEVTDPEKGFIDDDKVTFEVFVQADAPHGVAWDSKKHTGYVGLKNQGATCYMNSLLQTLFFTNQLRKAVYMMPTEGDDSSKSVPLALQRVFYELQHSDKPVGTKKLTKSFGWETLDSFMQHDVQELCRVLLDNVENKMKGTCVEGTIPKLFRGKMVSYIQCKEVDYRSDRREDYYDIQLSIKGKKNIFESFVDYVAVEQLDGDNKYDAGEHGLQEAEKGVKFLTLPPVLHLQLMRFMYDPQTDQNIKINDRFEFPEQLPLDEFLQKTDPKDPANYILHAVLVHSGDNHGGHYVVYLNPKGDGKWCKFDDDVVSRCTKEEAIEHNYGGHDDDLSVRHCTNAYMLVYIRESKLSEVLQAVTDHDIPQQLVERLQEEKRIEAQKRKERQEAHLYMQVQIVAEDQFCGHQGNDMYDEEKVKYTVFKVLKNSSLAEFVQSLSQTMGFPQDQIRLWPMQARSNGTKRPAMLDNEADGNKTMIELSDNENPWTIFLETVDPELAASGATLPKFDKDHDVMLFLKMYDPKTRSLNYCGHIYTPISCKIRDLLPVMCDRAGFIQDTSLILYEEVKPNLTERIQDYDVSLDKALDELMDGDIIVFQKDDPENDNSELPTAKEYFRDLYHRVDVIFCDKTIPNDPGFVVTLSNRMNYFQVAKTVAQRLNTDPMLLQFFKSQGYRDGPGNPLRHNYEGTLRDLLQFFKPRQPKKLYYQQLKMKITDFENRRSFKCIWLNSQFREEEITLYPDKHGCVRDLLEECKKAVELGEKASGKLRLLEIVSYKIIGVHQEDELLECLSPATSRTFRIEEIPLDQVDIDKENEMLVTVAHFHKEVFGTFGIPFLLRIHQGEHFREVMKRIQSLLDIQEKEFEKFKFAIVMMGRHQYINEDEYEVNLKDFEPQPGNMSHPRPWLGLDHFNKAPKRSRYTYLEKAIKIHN
UniProt Q96P20: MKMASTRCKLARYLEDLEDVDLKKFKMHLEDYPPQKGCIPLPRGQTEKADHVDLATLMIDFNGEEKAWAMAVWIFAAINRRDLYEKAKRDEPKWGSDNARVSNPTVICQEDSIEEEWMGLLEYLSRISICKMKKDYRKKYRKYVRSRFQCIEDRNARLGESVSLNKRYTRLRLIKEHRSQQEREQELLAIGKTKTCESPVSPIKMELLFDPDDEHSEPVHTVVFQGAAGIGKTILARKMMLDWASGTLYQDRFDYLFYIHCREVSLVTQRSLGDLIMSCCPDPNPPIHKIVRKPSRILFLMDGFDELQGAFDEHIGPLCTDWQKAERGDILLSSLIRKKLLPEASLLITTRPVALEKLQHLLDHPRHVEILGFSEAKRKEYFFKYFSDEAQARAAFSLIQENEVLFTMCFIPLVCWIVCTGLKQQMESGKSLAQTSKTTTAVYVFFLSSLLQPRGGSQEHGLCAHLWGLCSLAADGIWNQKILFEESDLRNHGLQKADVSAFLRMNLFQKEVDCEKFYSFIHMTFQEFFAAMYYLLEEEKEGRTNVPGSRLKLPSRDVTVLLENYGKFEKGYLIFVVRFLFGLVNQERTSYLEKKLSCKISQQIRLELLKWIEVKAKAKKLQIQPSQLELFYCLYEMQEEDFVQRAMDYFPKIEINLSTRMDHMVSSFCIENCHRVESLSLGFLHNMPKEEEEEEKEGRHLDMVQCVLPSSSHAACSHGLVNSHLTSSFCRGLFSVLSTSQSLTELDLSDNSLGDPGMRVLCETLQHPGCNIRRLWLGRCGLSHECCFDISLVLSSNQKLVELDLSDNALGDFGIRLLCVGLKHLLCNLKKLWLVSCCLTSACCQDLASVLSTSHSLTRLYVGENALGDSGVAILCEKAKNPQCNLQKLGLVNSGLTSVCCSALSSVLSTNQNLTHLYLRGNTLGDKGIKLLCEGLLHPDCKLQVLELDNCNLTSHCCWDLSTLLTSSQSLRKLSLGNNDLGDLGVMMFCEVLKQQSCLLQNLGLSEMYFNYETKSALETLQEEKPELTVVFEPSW

The source of these data is PMC10928159.

No constants are given. Whether binding was seen depends on the method and setting. In cells and extracts the contact can be indirect. A yes stands for co-enrichment or nearness to the bait. Other partners may have been found.

As to NLRP3 (from UniProt Q96P20 1-1036), the binding result was “binds”.
